SMILES strings stand for the structures. The list shows only some results of the screen, not a fair sample: it is rich in T/C values a quarter to a half above the control, in often repeated tests (any T/C) and in doses without a T/C. Other doses and runs of a compound stand elsewhere. T/C: endpoint of the treated group in % of that of the vehicle group. Some entries give survivors of the animals treated and no T/C: the source files T/C as zero there, which appears to mark a toxic dose or a test without result, not a measured value. Some survivor counts are full or nearly so, which does not show that the dose was tolerated: the source hardly ever lists a survival T/C far under the control, and the zero likely stands for such cases as well. Counts of survivors are from the toxicity check (mostly the fifth day) where no day follows; animals may have died later. Schedule codes are those of the source, taken here to give the interval after Q, in days (D) or hours (H), and the number of doses after X. Some schedules carry Z or #; the key to these is not given. Where survival is the endpoint, the PubChem record calls one and a half times the control and up active, and a quarter to a half above the control has no call in these data; cut-offs in other NCI protocols can differ. Some T/C values are followed by the survivors on the day toxicity was checked, most often the fifth; where none is given, no animal had died by that day. Some entries hold several experiments; the results are listed from low to high.

The subject of the assay is L1210 leukemia ip in BDF1 mice, survival T/C. Briefly: NCI In Vivo Anticancer Drug Screen. Data for tumor model L1210 Leukemia (intraperitoneal) in B6D2F1 (BDF1) mice. Particulars: T/C endpoint: mean survival time, higher T/C = longer survival.
The mark [1] stands for this setting: dose: 400.0 mg/kg/injection, schedule: Q04DX003 (ip), vehicle: Klucel (hydroxypropylcellulose) (HPC).

Consider `O=NN(CCCl)C(=O)N[C@H]1CCCC[C@@H]1Cl`, for which the survivor count is, setting by setting: (dose: 1.0 mg/kg/injection, schedule: Q## X024 (ip), vehicle: other) 6 of 10; (dose: 6.0 mg/kg/injection, schedule: Q## X008 (ip), vehicle: other) 3 of 10; (dose: 6.0 mg/kg/injection, schedule: Q## X024 (ip), vehicle: other) 5 of 10; (dose: 12.0 mg/kg/injection, schedule: Q## X008 (ip), vehicle: other) 6 of 10; (dose: 12.0 mg/kg/injection, schedule: Q## X024 (ip), vehicle: other) 2 of 10; (dose: 24.0 mg/kg/injection, schedule: Q## X008 (ip), vehicle: other) 4 of 10. The survivor count is, setting by setting: (dose: 24.0 mg/kg/injection, schedule: Q## X024 (ip), vehicle: other) 2 of 10; (dose: 48.0 mg/kg/injection, schedule: Q## X008 (ip), vehicle: other) 3 of 10; (dose: 60.0 mg/kg/injection, schedule: Q01DX005 (ip), vehicle: other) 10 of 10; (dose: 60.0 mg/kg/injection, schedule: Q01DX009 (ip), vehicle: other) 9 of 10; (dose: 60.0 mg/kg/injection, schedule: Q01DX009 (oral), vehicle: other) 10 of 10; (dose: 96.0 mg/kg/injection, schedule: Q## X008 (ip), vehicle: other) 1 of 10. Besides, the survivor count by setting is: (dose: 120.0 mg/kg/injection, schedule: Q01DX005 (ip), vehicle: other) 2 of 10; (dose: 120.0 mg/kg/injection, schedule: Q01DX005 (oral), vehicle: other) 8 of 10; (dose: 120.0 mg/kg/injection, schedule: Q01DX009 (ip), vehicle: other) 2 of 10; (dose: 120.0 mg/kg/injection, schedule: Q01DX009 (oral), vehicle: other) 7 of 10; (dose: 120.0 mg/kg/injection, schedule: Q01DX009 (sc), vehicle: other) 9 of 10; (dose: 120.0 mg/kg/injection, schedule: Q## X003 (ip), vehicle: other) 4 of 10. Moreover, the survivor count by setting is: (dose: 187.0 mg/kg/injection, schedule: Q01DX001 (ip), vehicle: carboxymethylcellulose (CMC)) 6 of 6; (dose: 240.0 mg/kg/injection, schedule: Q01DX005 (ip), vehicle: other) 0 of 10; (dose: 240.0 mg/kg/injection, schedule: Q01DX005 (oral), vehicle: other) 0 of 10; (dose: 240.0 mg/kg/injection, schedule: Q01DX009 (ip), vehicle: other) 0 of 10; (dose: 240.0 mg/kg/injection, schedule: Q01DX009 (oral), vehicle: other) 0 of 10; (dose: 240.0 mg/kg/injection, schedule: Q01DX009 (sc), vehicle: other) 3 of 10. Besides, the survivor count is reported as 0 of 10 (dose: 240.0 mg/kg/injection, schedule: Q## X003 (ip), vehicle: other); 4 of 10 (dose: 240.0 mg/kg/injection, schedule: Q## X003 (oral), vehicle: other); 2 of 6 (dose: 375.0 mg/kg/injection, schedule: Q01DX001 (ip), vehicle: carboxymethylcellulose (CMC)); 0 of 10 (dose: 480.0 mg/kg/injection, schedule: Q01DX005 (oral), vehicle: other); 0 of 10 (dose: 480.0 mg/kg/injection, schedule: Q01DX009 (oral), vehicle: other); 0 of 10 (dose: 480.0 mg/kg/injection, schedule: Q## X003 (oral), vehicle: other). In addition, the T/C is, setting by setting: (dose: 3.35 mg/kg/injection, schedule: Q01DX015 (ip), vehicle: other) 128 % of control; (dose: 5.1 mg/kg/injection, schedule: Q01DX015 (ip), vehicle: other) 146 % of control; (dose: 6.0 mg/kg/injection, schedule: Q01DX001 (ip), vehicle: other) 139 % of control; (dose: 6.0 mg/kg/injection, schedule: Q## X024 (oral), vehicle: other) 126 % of control; (dose: 10.0 mg/kg/injection, schedule: Q## X032 (ip), vehicle: other) 132 % of control [9 of 10 alive]; (dose: 10.4 mg/kg/injection, schedule: Q## X032 (ip), vehicle: other) 137 % of control. Also, the T/C (dose: 12.0 mg/kg/injection, schedule: Q01DX001 (ip), vehicle: carboxymethylcellulose (CMC)) is 133 % of control; the T/C (dose: 12.0 mg/kg/injection, schedule: Q01DX001 (oral), vehicle: other) is 129 % of control; the T/C (dose: 12.0 mg/kg/injection, schedule: Q01DX001 (sc), vehicle: other) was 140 % of control; the T/C (dose: 12.0 mg/kg/injection, schedule: Q## X024 (oral), vehicle: other) was 135 % of control; the T/C (dose: 13.0 mg/kg/injection, schedule: Q01DX001 (ip), vehicle: carboxymethylcellulose (CMC)) was 141 % of control; the T/C (dose: 15.25 mg/kg/injection, schedule: Q01DX001 (ip), vehicle: other) was 148 % of control. For the same molecule, the T/C reads like this: (dose: 16.0 mg/kg/injection, schedule: Q## X032 (ip), vehicle: other) 142 % of control; (dose: 21.6 mg/kg/injection, schedule: Q01DX001 (ip), vehicle: carboxymethylcellulose (CMC)) 136 % of control; (dose: 24.0 mg/kg/injection, schedule: Q## X032 (ip), vehicle: other) 148 % of control; (dose: 30.0 mg/kg/injection, schedule: Q01DX009 (oral), vehicle: other) 132 % of control; (dose: 36.0 mg/kg/injection, schedule: Q## X032 (ip), vehicle: other) 146 % of control; (dose: 54.0 mg/kg/injection, schedule: Q## X032 (ip), vehicle: other) 146 % of control. In addition, the T/C (dose: 60.0 mg/kg/injection, schedule: Q## X003 (oral), vehicle: other) was 142 % of control; the T/C (dose: 61.0 mg/kg/injection, schedule: Q01DX001 (ip), vehicle: other, evaluated on day 46) was 478 and 519 % of control [8 of 9 alive]; the T/C (dose: 61.0 mg/kg/injection, schedule: Q01DX001 (ip), vehicle: other, evaluated on day 99) was 383 % of control; the T/C (dose: 61.0 mg/kg/injection, schedule: Q01DX001 (ip), vehicle: other, run until all animals had died) was 219 and 273 % of control; the T/C (dose: 96.0 mg/kg/injection, schedule: Q01DX001 (oral), vehicle: other) was 142 % of control; the T/C (dose: 137.0 mg/kg/injection, schedule: Q01DX001 (ip), vehicle: other) was 147 % of control. Besides, the T/C (dose: 137.2 mg/kg/injection, schedule: Q01DX001 (ip), vehicle: other) is 135 % of control.
As to `C=CCc1cn(C2OC(COC(=O)c3ccccc3)C(OC(=O)c3ccccc3)C2OC(=O)c2ccccc2)c(=O)[nH]c1=O` (stereo not drawn), the survivor count (dose: 100.0 mg/kg/injection, schedule: Q01DX005 (ip), vehicle: saline) is recorded as 1 of 7 and the survivor count (dose: 200.0 mg/kg/injection, schedule: Q01DX005 (ip), vehicle: saline) is given as 1 of 7.
Regarding `CCN(CC)CC(=O)NC(CCN(C)C)(c1cccc2ccccc12)C(C)C` (stereo not drawn), where the note is “dose: 400.0 mg/kg/injection, schedule: Q04DX003 (ip), vehicle: saline”, the survivor count is given as 0 of 6.
Regarding `CC(Cl)(Cl)CC(O)(C(F)(F)F)C(F)(F)F`, under “dose: 400.0 mg/kg/injection, schedule: Q04DX003 (ip), vehicle: saline with Tween-80”, the survivor count was 4 of 6.
On to `Cc1nn(C)c(C#N)c1[N+](=O)[O-]`, for which the survivor count under setting [1] is 6 of 6.
For the molecule `Oc1c(Cl)cc(N=Cc2ccc(N(CCCCl)CCCCl)cc2)cc1Cl`, the survivor count runs as follows: (dose: 100.0 mg/kg/injection, schedule: Q04DX003 (ip), vehicle: Klucel (hydroxypropylcellulose) (HPC)) 6 of 6; (dose: 200.0 mg/kg/injection, schedule: Q04DX003 (ip), vehicle: Klucel (hydroxypropylcellulose) (HPC)) 6 of 6; under setting [1], 6 of 6.
